# Results from one PubChem assay

Data taken from PubChem BioAssay AID1224904, deposited by Broad Institute (2016).

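293T-iDUX4 cells carrying a ZSCAN4-driven Gaussia luciferase and a tet-on Italica luciferase control; the gap between the two luminescence signals is read after 24 h. The test concentration is not given here. Percent difference between the Gaussia and Italica channels; more negative values mean more selective suppression of the DUX4 reporter, and higher values mean less activity.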

Values are in %. The controls that fix the scale are not given here. Common to all entries: measured here: selective DUX4 reporter inhibition. This is a side read-out of the assay, for part of the compounds, not drawn at random.

- O=C(C[C@@H]1CC[C@@H]2[C@H](COC[C@@H](O)CN2C(=O)Nc2ccc(C(F)(F)F)cc2)O1)NC1Cc2ccccc2C1 : Gaussia minus Italica difference -6.858%
- COc1ccc2c3c(n(C)c2c1)[C@H](CO)N(C(=O)Nc1ccc(F)cc1)CC31CCN(C)CC1 : Gaussia minus Italica difference -8.624%
- CCCNC(=O)N1CC2(CN(S(=O)(=O)c3ccc(OC)cc3)C2)c2c(n(C)c3cc(OC)ccc23)[C@H]1CO : Gaussia minus Italica difference 1.686%
- COc1ccccc1NC(=O)N1CCCCN2[C@H](C1)[C@@H](c1ccc(-c3cccc(F)c3)cc1)[C@@H]2CO : Gaussia minus Italica difference 0.8789%
- O=S(=O)(c1ccccc1F)N1CC[C@H]2[C@H](CO)Nc3ccc(C4=CCCCC4)cc3[C@H]21 : Gaussia minus Italica difference 13.01%
- C[C@H](CO)N1C[C@H](C)[C@@H](CN(C)C(=O)Nc2cccc(Cl)c2Cl)OCc2ccccc2-c2ccccc2C1=O : Gaussia minus Italica difference -9.273%
- CO[C@H](C(=O)N(C)C[C@@H]1OCc2ccccc2-c2c(n(C)c3ccccc23)C(=O)N([C@H](C)CO)C[C@@H]1C)c1ccccc1 : Gaussia minus Italica difference 3.897%
- C[C@H](CO)N1C[C@H](C)[C@H](CN(C)C(=O)CCC(F)(F)F)OCc2ccccc2-c2c(n(C)c3ccccc23)C1=O : Gaussia minus Italica difference 7.187%
- O=C(c1cccnc1)N1CC(=O)N2[C@H](CO)[C@@H](c3ccc(C#CCC4CCCC4)cc3)[C@H]2C1 : Gaussia minus Italica difference -3.973%
- COc1ccccc1NC(=O)N1CCCCN2[C@@H](CO)[C@H](c3ccc(-c4cccc(F)c4)cc3)[C@@H]2C1 : Gaussia minus Italica difference -0.3783%
- Cc1cccc(-c2ccc([C@@H]3[C@@H](CO)N4CCCCN(S(=O)(=O)c5cccs5)C[C@@H]34)cc2)c1 : Gaussia minus Italica difference -8.001%
- CCC(=O)N1CC2(CN(Cc3ccc(Cl)cc3)C2)c2c(n(C)c3cc(OC)ccc23)[C@@H]1CO : Gaussia minus Italica difference -3.349%
- O=C(Cc1ccccc1)N1CCCCN2[C@H](CO)[C@H](c3ccc(C#CC4(O)CCCC4)cc3)[C@@H]2C1 : Gaussia minus Italica difference -3.067%
- COc1ccc2c3c([nH]c2c1)[C@@H](CO)N(C(=O)c1ccc(F)cc1)CC31CCN(S(=O)(=O)c2cccs2)CC1 : Gaussia minus Italica difference 4.47%
- O=C(C[C@@H]1C[C@H]2c3cc(NC(=O)Nc4ccccc4F)ccc3O[C@H]2[C@H](CO)O1)NC1CCCCC1 : Gaussia minus Italica difference -21.64%
- COc1ccc(NC(=O)Nc2ccc3c(c2)C(=O)N([C@H](C)CO)C[C@H](C)[C@@H](CN(C)S(=O)(=O)c2cccs2)OCCCC[C@H](C)O3)cc1 : Gaussia minus Italica difference 0.6221%
- O=C(CC1CC1)N1CC(=O)N2[C@H](C1)[C@@H](c1ccc(C#Cc3ccccc3)cc1)[C@@H]2CO : Gaussia minus Italica difference 1.469%
- CN1c2ccc(-c3ccccc3)cc2[C@@H]2[C@@H](CCN2C(=O)CC2CC2)[C@H]1CO : Gaussia minus Italica difference -13.93%
- O=C(C[C@H]1C[C@@H]2c3cc(NC(=O)Nc4ccccc4F)ccc3O[C@@H]2[C@@H](CO)O1)NCc1ccc2c(c1)OCO2 : Gaussia minus Italica difference -19%
- C[C@H]1CN([C@@H](C)CO)C(=O)c2ccccc2-c2ccccc2CO[C@H]1CN(C)S(=O)(=O)c1ccccc1F : Gaussia minus Italica difference -14.51%
- O=C(C[C@H]1CC[C@H]2[C@@H](COC[C@H](O)CN2C(=O)c2ccccc2F)O1)NCc1ccc(-c2ccccc2)cc1 : Gaussia minus Italica difference 5.072%
- O=C(C[C@@H]1CC[C@H]2[C@@H](COC[C@@H](O)CN2CCC(F)(F)F)O1)N1CCC(Cc2ccccc2)CC1 : Gaussia minus Italica difference -2.765%
- C[C@H](NC(=O)C[C@H]1C[C@H]2c3cc(NS(=O)(=O)c4ccc(F)cc4)ccc3O[C@H]2[C@H](CO)O1)c1ccccc1 : Gaussia minus Italica difference 3.819%
- Cc1ccccc1S(=O)(=O)N1CC[C@@H]2[C@@H](CO)Nc3ccc(-c4ccccc4)cc3[C@@H]21 : Gaussia minus Italica difference -5.5%
- CN(C)C(=O)c1ccc(-c2ccc3c(c2)[C@@H]2[C@@H](CCN2C(=O)C2CCCC2)[C@H](CO)N3C)cc1 : Gaussia minus Italica difference 6.665%
- OC[C@@H]1[C@@H](c2ccc(C#CC3CCCC3)cc2)[C@H]2CN(CCC(F)(F)F)CCCCN12 : Gaussia minus Italica difference -10.06%
- COc1ccccc1CN1C[C@@H]2N[C@H](C1)C2c1ccc(-c2ccccc2OC)cc1 (stereo partly specified) : Gaussia minus Italica difference -13.41%
- C[C@H](CO)N1C[C@H](C)[C@H](CN(C)S(=O)(=O)c2ccc(C(F)(F)F)cc2)OCc2ccccc2-c2ccccc2C1=O : Gaussia minus Italica difference -10.52%
- O=C(NC1CCC1)[C@@H]1[C@@H](CO)[C@@H]2Cn3c(ccc(-c4ccccc4)c3=O)[C@@H]2N1CCc1ccccc1 : Gaussia minus Italica difference -3.005%
- COc1ccccc1CNC(=O)C[C@H]1CC[C@H]2[C@@H](COC[C@@H](O)CN2Cc2cccc(-c3ccncc3)c2)O1 : Gaussia minus Italica difference -13.85%
- COc1ccc2c3c([nH]c2c1)[C@@H](CO)N(C(=O)Nc1ccc(F)cc1)CC31CN(C(=O)c2ccccn2)C1 : Gaussia minus Italica difference -14.56%
- OC[C@@H]1Nc2ccc(-c3ccccc3)cc2[C@H]2[C@@H]1CCN2Cc1ccccc1F : Gaussia minus Italica difference -22.17%
- O=C(C[C@H]1CC[C@@H]2[C@H](COC[C@@H](O)CN2Cc2ccc(C(F)(F)F)cc2)O1)NCCc1ccccc1 : Gaussia minus Italica difference -7.224%
- COc1cccc(CN2CCCCN3[C@H](CO)[C@@H](c4ccc(C#Cc5cccnc5)cc4)[C@@H]3C2)c1 : Gaussia minus Italica difference -22.96%
- N#C[C@H]1[C@@H](c2ccccc2-c2ccccc2F)[C@@H](CO)N1C(=O)Cc1ccccc1 : Gaussia minus Italica difference -3.526%
- COc1ccc2c3c(n(C)c2c1)[C@H](CO)N(C(=O)C1CCOCC1)CC31CN(Cc2cccc(F)c2)C1 : Gaussia minus Italica difference -5.091%

4 of the entries, repeated:

| Compound | Gaussia minus Italica difference (%) |
|---|---|
| `COc1ccc2c3c([nH]c2c1)[C@@H](CO)N(C(=O)Nc1ccc(F)cc1)CC31CN(C(=O)c2ccccn2)C1` | -14.56 |
| `O=C(C[C@H]1C[C@@H]2c3cc(NC(=O)Nc4ccccc4F)ccc3O[C@@H]2[C@@H](CO)O1)NCc1ccc2c(c1)OCO2` | -19 |
| `COc1ccccc1CNC(=O)C[C@H]1CC[C@H]2[C@@H](COC[C@@H](O)CN2Cc2cccc(-c3ccncc3)c2)O1` | -13.85 |
| `O=C(C[C@H]1CC[C@H]2[C@@H](COC[C@H](O)CN2C(=O)c2ccccc2F)O1)NCc1ccc(-c2ccccc2)cc1` | 5.072 |